# Laboratory results reported in PubChem BioAssay AID1487 (National Center for Advancing Translational Sciences (NCATS), 2009).
# Some of the results follow. Shown are side measurements of this screen, not its main read-out; they come without a call. Most of these compounds were active or inconclusive in the main read-out, so they are no random draw. Potencies come from curve fits of mixed quality, noted in brackets.
# Experiment: qHTS Assay for Modulators of Lamin A Splicing
# Conditions: HeLa LMNA splicing GFP/RFP minigene ratio, 48 h
# Procedure, shortened: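 S3 HeLa cells stably expressing lamin A-EGFP splicing minigene plus DsRed2, 600 cells/well, 48 h compound exposure at 37C. Laser-scanning cytometry; analysed as GFP (500-530 nm)/RFP (575-640 nm) total intensity ratio; 0.5% DMSO vehicle.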
# [1] = measured here: GFP splicing reporter channel
# [2] = measured here: RFP viability control channel
SMILES,AC50 [1],AC50 [2]
C=CCn1cc(/C=N/Nc2nc3ccccc3[nH]2)c2ccccc21,"12.6 µM [rising, single point]","14.1 µM [rising, partial curve]"
Cc1ccc(-c2nc(CSCC(=O)NCCN3CCN(Cc4ccccc4)CC3)c(C)o2)cc1,"7.94 µM [rising, partial curve, poor fit]","12.6 µM [rising, partial curve]"
O=c1oc(-c2ccccc2NS(=O)(=O)c2ccc3ccccc3c2)nc2ccccc12,–,"31.6 µM [rising, single point]"
Cc1cc(N/N=C\c2ccccc2)nc(-c2ccccc2O)n1,–,"0.447 µM [rising, partial curve, poor fit]"
COC(=O)[C@@]1(Cc2ccccc2)[C@H]2c3cc(C(=O)N4CCCC4)n(Cc4ccsc4Br)c3C[C@H]2CN1C(=O)c1ccccc1,"1 µM [rising, partial curve, poor fit]","15.8 µM [rising, partial curve]"
COc1ccc(C2=NN(C(=O)c3cccs3)C(O)(C(F)(F)F)C2)cc1 (stereo not given),–,"35.5 µM [falling, single point]"
CC[C@H](Cc1c(I)cc(I)c(N)c1I)C(=O)O,"0.316 µM [falling, full curve, poor fit]","0.316 µM [falling, full curve, poor fit]"
COc1ccc(CNC(=O)C(c2ccco2)N(Cc2cccs2)C(=O)Cc2cccs2)cc1 (stereo not given),"5.62 µM [rising, full curve, poor fit]","14.1 µM [rising, single point]"
COc1cc(OC)c(C(=O)Nc2ccccc2-c2ccccc2)cc1OC,–,"35.5 µM [rising, single point]"
CN1C(C(=O)Nc2ccccn2)=C(O)c2sccc2S1(=O)=O,"0.000891 µM [falling, full curve, poor fit]","0.000891 µM [falling, full curve, poor fit]"
O=C(N/N=C/c1ccc(N2CCOCC2)s1)c1ccccc1Br,–,"28.2 µM [falling, partial curve]"
CCOC(=O)c1cc(-c2ccccc2)sc1NC(=O)C(C)Sc1nnc(C)s1 (stereo not given),"20 µM [rising, single point]",–
CC1(C)C(=O)OC(c2cc(Br)ccc2O)C(C)(C)C1=O (stereo not given),–,"12.6 µM [rising, single point]"
O=C(N/N=C/c1ccc(O)cc1O)/C(=C/c1ccccc1)CCO,–,"10 µM [rising, partial curve]"
COc1cc(OC)c2c(OC)c(-c3ccc4c(c3)OCO4)c(=O)oc2c1,"14.1 µM [falling, single point]","12.6 µM [falling, single point]"
CSc1ccc(NC(=O)N2CCN(c3nc4ccccc4s3)CC2)cc1,–,"5.01 µM [rising, full curve]"
CSc1cccc(NC(=O)C2CCN(c3ncnc4c3nc3n4CCCCC3)CC2)c1,"8.91 µM [falling, partial curve]","8.91 µM [falling, partial curve, poor fit]"

SMILES,AC50 [1],AC50 [2]
CCc1ccc2oc(=O)cc(CN3CCC(C)CC3)c2c1,"0.2 µM [falling, partial curve, poor fit]","0.0251 µM [falling, full curve]"
O=C(CCC(=O)N1CC2CCCN2c2ccccc21)NCc1ccccc1 (stereo not given),"0.0794 µM [falling, full curve]","0.0891 µM [falling, full curve]"
N#C/C(=C\c1ccc(C(=O)O)cc1)S(=O)(=O)c1cc(Br)ccc1Br,–,"3.98 µM [falling, single point]"
COc1ccc(CNC(=O)c2ccc3c(c2)N(C)C(=O)C2CCCCN32)cc1OC (stereo not given),–,"14.1 µM [rising, single point]"
O=Cc1s/c(=N\S(=O)(=O)c2ccccc2)n(CCCCl)c1Cl,"0.355 µM [falling, full curve, poor fit]","12.6 µM [falling, partial curve]"
COc1ccc(Br)cc1/C=N/NC(=O)c1cc(OC)c(OC)c(OC)c1,–,"10 µM [rising, partial curve, poor fit]"
Cc1ccc(-c2cccc(CN3CCN(C4CCN(C(C)C)CC4)C(CCO)C3)c2)o1 (stereo not given),"25.1 µM [falling, partial curve, poor fit]",–
Cc1nn(Cc2ccc(C(=O)N3c4ccc(F)cc4CCC3C)o2)c(C)c1Br (stereo not given),–,"20 µM [rising, single point]"
CC1(C)CC(=O)c2c(Cc3ccccc3)noc2C1,"7.08 µM [falling, full curve, poor fit]","6.31 µM [falling, full curve, poor fit]"
O=C(COC(=O)c1sc2cc(Cl)ccc2c1Cl)Nc1ncc(Cl)cc1Cl,"31.6 µM [rising, single point]",–
CCOC(=O)/C(C#N)=C/c1c(OCC)n(CC)c2ccccc12,–,"25.1 µM [rising, single point]"
Cc1oc(-c2ccc(Cl)cc2)nc1Cn1c(=O)cc(C)c2c(C)nn(-c3cccc(F)c3)c21,"0.00447 µM [falling, full curve]","0.00501 µM [falling, full curve, poor fit]"
CCn1ncc(C2=NOC(C(=O)Nc3cnn(C45CC6CC(CC(C6)C4)C5)c3)C2)c1C (stereo not given),"5.62 µM [rising, partial curve]","15.8 µM [rising, partial curve]"
N#CC1=C(N)Oc2cc(Nc3ccccc3)ccc2C1c1ccncc1 (stereo not given),"15.8 µM [falling, single point]","35.5 µM [falling, single point]"
COc1ccc(NC(=O)C(=O)NCC(c2ccc3c(c2)OCO3)N2CCN(C)CC2)cc1 (stereo not given),"0.0355 µM [falling, full curve, poor fit]","0.0562 µM [falling, full curve, poor fit]"
O=C1N=C(O)CN1/N=C\c1ccc(-c2ccc([N+](=O)[O-])cc2)o1,"0.0708 µM [falling, full curve, poor fit]","0.0631 µM [falling, full curve, poor fit]"

# An excerpt from above in order of molecular weight, rising.
SMILES,AC50 [1],AC50 [2]
CC1(C)CC(=O)c2c(Cc3ccccc3)noc2C1,"7.08 µM [falling, full curve, poor fit]","6.31 µM [falling, full curve, poor fit]"
O=C(CCC(=O)N1CC2CCCN2c2ccccc21)NCc1ccccc1 (stereo not given),"0.0794 µM [falling, full curve]","0.0891 µM [falling, full curve]"
O=C(N/N=C/c1ccc(N2CCOCC2)s1)c1ccccc1Br,–,"28.2 µM [falling, partial curve]"
CCOC(=O)c1cc(-c2ccccc2)sc1NC(=O)C(C)Sc1nnc(C)s1 (stereo not given),"20 µM [rising, single point]",–
Cc1nn(Cc2ccc(C(=O)N3c4ccc(F)cc4CCC3C)o2)c(C)c1Br (stereo not given),–,"20 µM [rising, single point]"
O=C(COC(=O)c1sc2cc(Cl)ccc2c1Cl)Nc1ncc(Cl)cc1Cl,"31.6 µM [rising, single point]",–
Cc1ccc(-c2nc(CSCC(=O)NCCN3CCN(Cc4ccccc4)CC3)c(C)o2)cc1,"7.94 µM [rising, partial curve, poor fit]","12.6 µM [rising, partial curve]"
